# Data published in article PMC2940742.
# B1: SRFR1, endogenous in wild type Col-0 plants (protein, UniProt F4JS25-1 1-1052)
# chain: MATATATSERFELAKHCSSRNWSKAIRVLDSLLAKESSILDICNRAFCYNQLELHKHVIKDCDKALLLEPFAIQAFILKGRALLALGRKQEAVLVLEQGYKSALQQTADVKQLLELEELLKDARREIDGILKSHATESPQETPAYHSEKSDEKSDKLDNHESGASSNGNSHESSSELGEQSKIVSFSKVASKASKQSDGNSDLCNGSVYKEKENGKCGSQINGYYESCKPCNGSDLHDNLAESSDRFGELSINGNKISIKSSKMSHKAEARCGISDESRKNKKYTIARISGTHSISVDFRLSRGIAQVNEGNYTKAISIFDKVLKEEPTYPEALIGRGTAYAFQRELESAIADFTKAIQSNPAASEAWKRRGQARAALGEYVEAVEDLTKALVFEPNSPDVLHERGIVNFKSKDFTAAVKDLSICLKQEKDNKSAYTYLGLAFASLGEYKKAEEAHLKSIQLDSNYLEAWLHLAQFYQELADHCKALECIEQVLQVDNRVWKAYHLRGLVFHGLGEHRKAIQELSIGLSIENTIECLYLRGSCYHAVGEYRDAVKDYDATVDVELDAVEKFVLQCLAFYQKELALYTASKVSSEFLCFDIDGDIDPMFKEYWCKRLHPKNVCEKVYRQPPLRESLKKGKLKKQDLAITKQKANILRFADLIGKRIQYDCPGFLPNKRQHRMAGLAVIEIAQKVSKAWRIEWRNSTKGTTKNGKKNRRRERTNILSQNRGGAGCSSSSFSETSTGYASLEDRSSGRSILSWQDVYSPAVRWRQISEPCDPVVWVNKLSEEFNSGFGSHTPMVLGQAKVVRYFPNYERTLTLAKSIIKDKLSVRSKKDKVIDLSKDEKIEKIMRAETCDELHNIVGEDFWVATWCDSTGSEGKRLEGTRITCIQKPGRLGYDFSIRTPCTPARWSDFDEEMTSAWEALCTAYCGENYGSTELDALETVRDAILRMTYYWYNFMPLARGTAVTGFVVLLGLLLAANMEFTETIPKGLQIDWEAILNVEPGSFVDSVKSWLYPSLKINTSWRDHTEISSAFSTTGAVVAALSTYND
# Molecular target: SGT1, endogenous in wild type Col-0 plants (Arabidopsis (endogenous in Col-0 plants))
# Assay: co-IP; total protein extract of 12-day-old wild type Col-0 seedlings; 50 mM Tris-HCl pH 7.5, 10 mM MgCl2, 150 mM NaCl, 0.1% NP40; IP with anti-SGT1b or anti-MPK4 and Protein A agarose at 4°C; blots with anti-SRFR1, anti-SGT1, anti-MPK4
binder,measurement,value
B1,binding,binds

# No constants are given. Whether binding was seen depends on the method and setting. In cells and extracts the contact can be indirect. Binding calls can cover weak binding; strength is not graded here.
